Publication PMC4979867, “Reconstitution of the membrane protein OmpF into biomimetic block copolymer–phospholipid hybrid membranes” (Beilstein Journal of Nanotechnology, 2016)
Results are given in words; binding and its absence hold for the method and conditions named.

Target: outer membrane protein OmpF from Escherichia coli (Escherichia coli) (UniProt P02931)
Test: SDS-PAGE of the boiled sample; purified OmpF in 1% octyl-POE, sample boiled before SDS-PAGE; both purified

B1: outer membrane protein OmpF from Escherichia coli (natural protein, UniProt P02931 23-362, looked up)
chain: AEIYNKDGNKVDLYGKAVGLHYFSKGNGENSYGGNGDMTYARLGFKGETQINSDLTGYGQWEYNFQGNNSEGADAQTGNKTRLAFAGLKYADVGSFDYGRNYGVVYDALGYTDMLPEFGGDTAYSDDFFVGRVGGVATYRNSNFFGLVDGLNFAVQYLGKNERDTARRSNGDGVGGSISYEYEGFGIVGAYGAADRTNLQEAQPLGNGKKAEQWATGLKYDANNIYLAANYGETRNATPITNKFTNTSGFANKTQDVLLVAQYQFDFGLRPSIAYTKSKAKDVEGIGDVDLVNYFEVGATYYFNKNMSTYVDYIINQIDSDNKLGVGSDDTVAVGIVYQF
notes: Outer membrane porin OmpF, Escherichia coli, native protein from strain B^E BL21(DE3)omp6 (lacks LamB and OmpC); no residues or identifiers printed; The protein here comes from an E. coli B strain, whose OmpF may differ from it at a few positions; also called native OmpF protein
Q: B1 was tested. Which binding did it give?
A: no binding (condition: boiled sample)
